Data as given in the supplement of paper PMC10849652.
The list shows a part of the results.

Amino acid sequences for entries named in this document (tags omitted). A change or cut given only in a name is not applied to a line headed by its entry.
UniProt Q8NHZ8, whole entry, looked up: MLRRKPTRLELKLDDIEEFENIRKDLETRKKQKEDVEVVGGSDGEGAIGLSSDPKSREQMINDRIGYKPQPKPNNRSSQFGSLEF
UniProt O75081: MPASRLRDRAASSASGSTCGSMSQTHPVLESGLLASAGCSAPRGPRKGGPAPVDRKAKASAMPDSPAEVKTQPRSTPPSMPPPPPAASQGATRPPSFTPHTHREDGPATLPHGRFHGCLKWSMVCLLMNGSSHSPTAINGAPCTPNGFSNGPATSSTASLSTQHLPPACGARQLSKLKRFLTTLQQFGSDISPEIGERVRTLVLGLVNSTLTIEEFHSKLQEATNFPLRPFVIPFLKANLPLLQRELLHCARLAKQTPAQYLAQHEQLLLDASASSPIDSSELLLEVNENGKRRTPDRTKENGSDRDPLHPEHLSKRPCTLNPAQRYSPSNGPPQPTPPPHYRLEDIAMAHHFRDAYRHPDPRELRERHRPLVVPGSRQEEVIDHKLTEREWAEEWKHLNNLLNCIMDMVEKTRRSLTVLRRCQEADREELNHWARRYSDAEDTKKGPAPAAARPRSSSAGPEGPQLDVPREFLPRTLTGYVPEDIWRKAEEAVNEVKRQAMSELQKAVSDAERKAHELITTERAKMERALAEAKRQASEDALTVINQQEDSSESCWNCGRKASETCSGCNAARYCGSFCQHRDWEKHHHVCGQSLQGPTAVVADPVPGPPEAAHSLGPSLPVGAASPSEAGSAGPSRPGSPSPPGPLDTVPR
UniProt Q5M9N0: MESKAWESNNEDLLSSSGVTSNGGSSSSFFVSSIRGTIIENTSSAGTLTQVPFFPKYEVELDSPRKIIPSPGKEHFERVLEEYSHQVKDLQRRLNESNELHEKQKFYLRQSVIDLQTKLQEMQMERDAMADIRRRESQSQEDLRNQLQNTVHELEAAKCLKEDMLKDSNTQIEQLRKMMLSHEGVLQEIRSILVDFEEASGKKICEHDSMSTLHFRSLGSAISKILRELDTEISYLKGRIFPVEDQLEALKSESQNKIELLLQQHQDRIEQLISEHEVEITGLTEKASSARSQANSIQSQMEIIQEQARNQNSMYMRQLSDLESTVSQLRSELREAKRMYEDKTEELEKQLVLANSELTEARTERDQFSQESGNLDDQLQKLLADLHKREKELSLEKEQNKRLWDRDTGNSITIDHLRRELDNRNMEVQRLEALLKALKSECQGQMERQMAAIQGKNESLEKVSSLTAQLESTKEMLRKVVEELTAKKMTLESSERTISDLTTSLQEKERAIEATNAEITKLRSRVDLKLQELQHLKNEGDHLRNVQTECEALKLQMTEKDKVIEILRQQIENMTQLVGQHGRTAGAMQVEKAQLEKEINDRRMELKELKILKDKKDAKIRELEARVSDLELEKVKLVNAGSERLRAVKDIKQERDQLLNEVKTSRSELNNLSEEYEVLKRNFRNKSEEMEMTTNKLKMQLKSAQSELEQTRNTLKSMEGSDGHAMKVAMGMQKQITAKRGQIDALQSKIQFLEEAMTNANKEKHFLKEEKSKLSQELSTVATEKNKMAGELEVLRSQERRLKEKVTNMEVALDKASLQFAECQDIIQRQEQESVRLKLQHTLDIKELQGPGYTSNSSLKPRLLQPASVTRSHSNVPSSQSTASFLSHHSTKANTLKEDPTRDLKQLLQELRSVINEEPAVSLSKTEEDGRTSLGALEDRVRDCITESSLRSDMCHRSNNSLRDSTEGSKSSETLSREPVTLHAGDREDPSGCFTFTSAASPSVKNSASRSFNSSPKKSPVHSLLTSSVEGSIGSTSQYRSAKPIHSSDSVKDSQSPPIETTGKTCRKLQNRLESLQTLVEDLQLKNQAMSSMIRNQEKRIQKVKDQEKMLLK
UniProt P24863: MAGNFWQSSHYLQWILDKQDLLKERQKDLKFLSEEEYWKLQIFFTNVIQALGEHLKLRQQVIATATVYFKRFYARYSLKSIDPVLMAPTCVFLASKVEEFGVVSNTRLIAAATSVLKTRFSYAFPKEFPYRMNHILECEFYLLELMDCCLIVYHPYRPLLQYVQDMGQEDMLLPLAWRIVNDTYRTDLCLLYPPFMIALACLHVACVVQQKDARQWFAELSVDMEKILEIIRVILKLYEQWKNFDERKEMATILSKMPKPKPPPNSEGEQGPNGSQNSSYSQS
UniProt P16070: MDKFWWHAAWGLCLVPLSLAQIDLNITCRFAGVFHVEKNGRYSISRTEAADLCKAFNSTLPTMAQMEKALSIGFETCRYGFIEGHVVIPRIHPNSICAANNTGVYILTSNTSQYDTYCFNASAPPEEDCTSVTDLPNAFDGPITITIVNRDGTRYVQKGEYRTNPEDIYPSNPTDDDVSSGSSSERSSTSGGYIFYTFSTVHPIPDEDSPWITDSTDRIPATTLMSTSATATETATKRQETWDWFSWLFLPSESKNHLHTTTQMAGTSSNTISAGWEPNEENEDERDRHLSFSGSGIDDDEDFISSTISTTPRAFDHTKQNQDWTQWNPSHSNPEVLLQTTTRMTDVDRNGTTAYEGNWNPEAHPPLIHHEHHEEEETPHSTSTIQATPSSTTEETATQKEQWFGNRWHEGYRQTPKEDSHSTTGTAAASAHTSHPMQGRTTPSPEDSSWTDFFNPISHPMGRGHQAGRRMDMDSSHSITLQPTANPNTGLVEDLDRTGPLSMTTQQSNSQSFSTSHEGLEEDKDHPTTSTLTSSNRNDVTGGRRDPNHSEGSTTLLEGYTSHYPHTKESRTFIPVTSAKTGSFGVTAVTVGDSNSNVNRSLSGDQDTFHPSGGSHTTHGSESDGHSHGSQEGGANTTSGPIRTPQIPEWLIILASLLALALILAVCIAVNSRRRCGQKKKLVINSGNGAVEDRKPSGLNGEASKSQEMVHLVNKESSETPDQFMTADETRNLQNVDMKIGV
UniProt Q14790: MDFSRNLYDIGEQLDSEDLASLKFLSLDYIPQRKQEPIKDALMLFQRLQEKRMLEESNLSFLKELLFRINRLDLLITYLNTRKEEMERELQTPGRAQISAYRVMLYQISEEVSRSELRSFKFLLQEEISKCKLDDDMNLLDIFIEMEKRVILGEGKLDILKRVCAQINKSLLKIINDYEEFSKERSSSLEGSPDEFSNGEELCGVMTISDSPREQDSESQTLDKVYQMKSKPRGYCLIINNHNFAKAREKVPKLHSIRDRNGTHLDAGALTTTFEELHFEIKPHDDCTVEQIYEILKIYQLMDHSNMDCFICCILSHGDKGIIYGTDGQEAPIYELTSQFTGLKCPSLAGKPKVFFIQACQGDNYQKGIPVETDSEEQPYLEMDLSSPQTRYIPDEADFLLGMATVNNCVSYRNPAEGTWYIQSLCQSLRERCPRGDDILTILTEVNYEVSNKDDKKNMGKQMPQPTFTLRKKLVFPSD
UniProt O95400: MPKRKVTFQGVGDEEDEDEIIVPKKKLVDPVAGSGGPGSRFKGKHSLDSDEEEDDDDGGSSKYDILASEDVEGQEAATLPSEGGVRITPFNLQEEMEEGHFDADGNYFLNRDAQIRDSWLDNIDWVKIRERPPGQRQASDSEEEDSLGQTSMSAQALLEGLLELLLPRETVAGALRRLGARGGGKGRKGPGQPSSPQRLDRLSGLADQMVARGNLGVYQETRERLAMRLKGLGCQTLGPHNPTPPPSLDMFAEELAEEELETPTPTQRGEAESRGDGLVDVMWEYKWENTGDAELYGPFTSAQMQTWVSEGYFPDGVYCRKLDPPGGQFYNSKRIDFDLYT
UniProt P20138, whole entry, looked up: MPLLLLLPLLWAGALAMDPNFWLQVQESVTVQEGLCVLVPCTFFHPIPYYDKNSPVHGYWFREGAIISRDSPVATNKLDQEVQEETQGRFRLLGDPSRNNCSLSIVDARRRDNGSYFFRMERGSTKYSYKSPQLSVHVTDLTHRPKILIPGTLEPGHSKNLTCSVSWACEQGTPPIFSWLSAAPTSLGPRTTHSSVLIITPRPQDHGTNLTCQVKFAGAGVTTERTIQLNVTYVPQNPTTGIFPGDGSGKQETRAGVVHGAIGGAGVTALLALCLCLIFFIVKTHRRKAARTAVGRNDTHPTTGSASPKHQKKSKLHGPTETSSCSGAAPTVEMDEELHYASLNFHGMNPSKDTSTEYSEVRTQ
UniProt P24864, whole entry, looked up: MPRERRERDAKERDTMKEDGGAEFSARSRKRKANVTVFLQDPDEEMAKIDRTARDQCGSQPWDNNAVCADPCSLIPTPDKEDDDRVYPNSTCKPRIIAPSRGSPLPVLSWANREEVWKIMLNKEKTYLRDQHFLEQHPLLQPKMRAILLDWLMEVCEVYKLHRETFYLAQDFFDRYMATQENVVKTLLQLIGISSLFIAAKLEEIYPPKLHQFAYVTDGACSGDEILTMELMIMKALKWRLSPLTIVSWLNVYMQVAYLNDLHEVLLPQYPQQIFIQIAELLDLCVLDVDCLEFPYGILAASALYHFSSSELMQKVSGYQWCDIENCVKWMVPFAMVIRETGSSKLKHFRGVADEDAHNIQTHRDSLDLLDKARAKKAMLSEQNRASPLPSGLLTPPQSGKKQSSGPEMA
UniProt Q9P0B6: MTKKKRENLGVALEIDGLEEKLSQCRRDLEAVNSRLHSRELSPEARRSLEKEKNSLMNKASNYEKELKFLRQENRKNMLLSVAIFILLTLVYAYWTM
UniProt P51636: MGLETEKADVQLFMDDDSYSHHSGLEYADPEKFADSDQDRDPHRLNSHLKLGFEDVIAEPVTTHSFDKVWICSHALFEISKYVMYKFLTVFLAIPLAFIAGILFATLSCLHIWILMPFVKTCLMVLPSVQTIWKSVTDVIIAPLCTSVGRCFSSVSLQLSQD
UniProt Q9BUN5: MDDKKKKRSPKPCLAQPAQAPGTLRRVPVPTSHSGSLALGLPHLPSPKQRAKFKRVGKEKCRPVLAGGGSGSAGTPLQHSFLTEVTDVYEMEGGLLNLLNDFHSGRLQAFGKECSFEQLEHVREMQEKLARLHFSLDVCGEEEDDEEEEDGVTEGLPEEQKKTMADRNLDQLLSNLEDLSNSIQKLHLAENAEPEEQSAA
UniProt Q75N03: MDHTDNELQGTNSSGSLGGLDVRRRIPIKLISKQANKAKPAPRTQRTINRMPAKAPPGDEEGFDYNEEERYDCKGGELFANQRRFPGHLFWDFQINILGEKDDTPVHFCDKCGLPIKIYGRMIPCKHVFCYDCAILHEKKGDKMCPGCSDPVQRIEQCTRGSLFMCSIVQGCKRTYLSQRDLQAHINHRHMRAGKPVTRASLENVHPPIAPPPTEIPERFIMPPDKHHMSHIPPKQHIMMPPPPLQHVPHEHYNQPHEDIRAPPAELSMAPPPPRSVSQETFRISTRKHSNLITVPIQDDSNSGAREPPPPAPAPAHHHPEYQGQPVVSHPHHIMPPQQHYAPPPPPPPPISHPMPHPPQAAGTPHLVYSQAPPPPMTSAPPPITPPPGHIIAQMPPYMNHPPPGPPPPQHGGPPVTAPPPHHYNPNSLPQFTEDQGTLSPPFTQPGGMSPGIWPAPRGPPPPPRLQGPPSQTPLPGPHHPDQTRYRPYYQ
UniProt Q8N9Z2: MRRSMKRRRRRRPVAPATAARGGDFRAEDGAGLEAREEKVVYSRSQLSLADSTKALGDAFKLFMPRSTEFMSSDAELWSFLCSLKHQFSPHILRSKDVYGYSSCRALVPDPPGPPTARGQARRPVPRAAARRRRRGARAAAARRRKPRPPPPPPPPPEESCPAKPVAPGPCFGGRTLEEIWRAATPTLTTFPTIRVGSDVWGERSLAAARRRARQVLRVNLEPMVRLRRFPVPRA
UniProt Q96A19: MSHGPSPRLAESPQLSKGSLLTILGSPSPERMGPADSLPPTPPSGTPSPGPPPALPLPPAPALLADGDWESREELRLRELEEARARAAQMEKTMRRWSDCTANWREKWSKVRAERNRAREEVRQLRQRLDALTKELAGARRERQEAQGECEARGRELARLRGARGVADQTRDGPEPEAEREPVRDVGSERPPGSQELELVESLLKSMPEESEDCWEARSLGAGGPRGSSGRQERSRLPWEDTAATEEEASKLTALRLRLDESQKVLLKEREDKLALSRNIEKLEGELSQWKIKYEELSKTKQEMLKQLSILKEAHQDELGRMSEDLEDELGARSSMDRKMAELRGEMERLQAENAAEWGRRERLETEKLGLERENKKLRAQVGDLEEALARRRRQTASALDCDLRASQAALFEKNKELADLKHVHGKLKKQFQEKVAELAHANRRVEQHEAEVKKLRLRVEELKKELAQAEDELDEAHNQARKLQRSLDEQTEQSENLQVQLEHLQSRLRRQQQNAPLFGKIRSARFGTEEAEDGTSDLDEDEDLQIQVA
UniProt Q9HC52: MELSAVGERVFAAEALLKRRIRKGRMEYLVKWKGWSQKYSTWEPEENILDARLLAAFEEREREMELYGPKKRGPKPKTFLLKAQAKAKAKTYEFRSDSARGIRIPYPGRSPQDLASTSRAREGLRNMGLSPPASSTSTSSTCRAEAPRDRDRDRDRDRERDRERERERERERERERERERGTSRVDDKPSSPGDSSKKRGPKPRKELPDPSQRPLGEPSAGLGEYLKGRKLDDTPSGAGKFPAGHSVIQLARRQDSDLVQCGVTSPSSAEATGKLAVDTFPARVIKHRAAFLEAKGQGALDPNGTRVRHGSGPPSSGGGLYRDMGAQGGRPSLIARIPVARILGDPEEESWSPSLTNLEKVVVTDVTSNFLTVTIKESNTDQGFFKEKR

Assays:
Test in all cases: log2 fold change, soluble protein after heating vs DMSO (PISA); higher = thermal stabilisation; K562 cells, 10 uM, 30 min; active = over 0.2 and 3.5 SD of the protein, either way, in both replicates (recomputed)
[1] = compound: C1=CC=C(C=C1)[C@H](COC2=CC3=C(C=C2)NC(=O)N3)NC(=O)C4=CC=CN(C4=O)CC5=CC(=C(C=C5)F)F
Summary of the method: (§1)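 K562 cells at 2×10^6 cells/mL were treated with 10 μM compound for 30 min. Aliquots were heated for 3 min across 48°C-58°C, pooled, and extracted in PBS with 0.5% NP-40 at 4°C; soluble protein was the supernatant after 21,000xg for 90 min. Soluble protein was quantified by TMTpro 16plex LC-MS/MS with channel sums equalised, and reported as log2 fold change in thermal stability against DMSO controls, with values from duplicates.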

[2] = compound: CC1=C(SC2=C1C(=N[C@H](C3=NN=C(N32)C)CC(=O)N)C4=CC=C(C=C4)Cl)C
Summary of the method: as §1

[3] = compound: CC1=C2C(=CC=C1)N=C(N(C2=O)C3=CC=CC=C3C)CN4C=NC5=C(N=CN=C54)N
Summary of the method: as §1

[4] = compound: Cc1sc2c(c1C)C(c1ccc(Cl)cc1)=N[C@@H](CC(=O)OC(C)(C)C)c1nnc(C)n1-2
Summary of the method: as §1

[5] = compound: c1ccc([C@@H]2C[C@H]2NC2CCNCC2)cc1
Summary of the method: as §1

Measured: log2 fold change

CD63 (UniProt P08962)
inactive: [1] 0.041 | [2] 0.02 | [3] -0.008 | [4] 0.009 | [5] 0.035

CD81 (UniProt P60033)
inactive: [1] -0.083 | [2] -0.013 | [3] -0.035 | [4] 0.03 | [5] 0.109

CCDC82 (UniProt Q8N4S0)
inactive: [1] -0.018 | [2] 0.056 | [3] 0.033 | [4] 0.043 | [5] 0.004

CDC26 (UniProt Q8NHZ8)
inactive: [1] 0.05 | [2] 0.027 | [3] -0.346 | [4] -0.038 | [5] 0.022

CBFA2T3 (UniProt O75081)
inactive: [1] -0.031 | [2] 0.011 | [3] 0.03 | [4] -0.003 | [5] 0.099

CCT6B isoform 3 (UniProt Q92526)
inactive: [2] 0.433 | [3] 0.058 | [4] -0.026 | [5] 0.016

CD80 (UniProt P33681)
inactive: [2] 0.046 | [4] 0 | [5] 0.117

CDADC1 (UniProt Q9BWV3)
inactive: [3] -0.047

CCDC9 (UniProt Q9Y3X0)
inactive: [1] -0.019 | [2] -0.012 | [3] -0.118 | [4] 0.091 | [5] 0.041

CCND2 (UniProt P30279)
inactive: [2] 0 | [5] -0.16

CDC37 (UniProt K7EL68)
inactive: [1] -0.075 | [2] 0.13 | [3] 0.056 | [5] -0.176

CASP9 (UniProt P55211)
inactive: [2] -0.045 | [3] 0.102 | [4] 0.05 | [5] 0.12

CCDC158 (UniProt Q5M9N0)
inactive: [1] 0.036 | [2] -0.095 | [3] -0.003 | [5] 0.056

CCNC (UniProt P24863)
inactive: [1] -0.139 | [2] -0.172 | [3] 0.01 | [5] -0.037

CCDC88A (UniProt Q3V6T2)
inactive: [1] -0.173 | [2] -0.031 | [3] 0.073 | [4] -0.044 | [5] 0.051

Copied from above (three entries):
CASP9 (UniProt P55211)
inactive: [2] -0.045 | [3] 0.102 | [4] 0.05 | [5] 0.12

CCDC158 (UniProt Q5M9N0)
inactive: [1] 0.036 | [2] -0.095 | [3] -0.003 | [5] 0.056

CCNC (UniProt P24863)
inactive: [1] -0.139 | [2] -0.172 | [3] 0.01 | [5] -0.037

Following part.

CAVIN2 (UniProt O95810)
inactive: [1] 0.031 | [2] -0.112 | [3] -0.028 | [4] 0.071 | [5] 0.02

CAV1 (UniProt F8WDM7)
inactive: [2] 0.184 | [5] 0.099

CD44 (UniProt P16070)
inactive: [2] -0.04 | [3] 0.046 | [4] -0.026 | [5] -0.009

CD164 (UniProt Q04900)
inactive: [1] 0.015 | [2] 0.033 | [3] -0.007 | [5] 0.169

CDC25C (UniProt P30307)
inactive: [2] -0.354 | [4] 0.105 | [5] 0.144

CCDC175 (UniProt P0C221)
inactive: [1] 0.217 | [2] 0.106 | [3] 0.069 | [5] -0.123

CDC25B isoform 4 (UniProt P30305)
inactive: [1] 0.107 | [2] 0.009 | [3] 0.101 | [5] -0.024

CCNT2 (UniProt O60583)
inactive: [4] 0.061

CASP8 isoform 9 (UniProt Q14790)
inactive: [1] -0.013 | [3] 0.052 | [4] 0.033

CD2BP2 (UniProt O95400)
inactive: [1] 0.028 | [3] -0.212 | [4] 0.199

CD37 (UniProt P11049)
inactive: [3] 0.123 | [4] 0.151

CD33 (UniProt P20138)
inactive: [3] 0.057 | [4] 0.046

CCNE1 (UniProt P24864)
inactive: [1] 0.067 | [3] -0.049 | [4] -0.033

CD69 (UniProt Q07108)
inactive: [1] -0.037 | [2] 0.052 | [3] -0.083 | [5] 0.02

CCNYL1 (UniProt Q8N7R7)
inactive: [1] 0.191 | [2] -0.047 | [5] -0.103

CCDC167 (UniProt Q9P0B6)
inactive: [1] 0.153 | [2] -0.037 | [4] -0.124 | [5] 0.073

CD46 (UniProt P15529)
inactive: [1] 0.109 | [3] 0.026

CAV2 (UniProt P51636)
inactive: [1] 0 | [4] -0.046

CD9 (UniProt P21926)
inactive: [2] 0.111 | [4] -0.126 | [5] 0.038

CCDC28B (UniProt Q9BUN5)
inactive: [1] -0.132 | [3] -0.009 | [4] 0.03

CDC27 (UniProt G5EA36)
inactive: [2] -0.146 | [4] 0.021 | [5] -0.042

CD84 (UniProt Q9UIB8)
inactive: [2] 0.167 | [4] -0.079 | [5] 0.086

CBLL1 (UniProt Q75N03)
inactive: [2] -0.062 | [3] 0.268 | [4] -0.044 | [5] 0.02

CD109 (UniProt Q6YHK3)
inactive: [3] -0.118

CCDC186 (UniProt Q7Z3E2)
inactive: [1] -0.158 | [3] -0.073

CCDC71L isoform 2 (UniProt Q8N9Z2)
inactive: [1] -0.211 | [2] -0.089 | [4] 0.238 | [5] 0.048

CCDC102A (UniProt Q96A19)
inactive: [2] 0.059 | [3] -0.078 | [5] 0.078

CBX8 (UniProt Q9HC52)
inactive: [2] -0.592 | [5] 0.197
